Hit rate of the full screen: of about 330,000 compounds, about 7,700 (2.3%) were called active. The shares of active, inactive and inconclusive entries below differ from those in the screen. Calls follow the shape of the dose curve; as a rule, active = well fitted inhibition curve with a large enough effect; inconclusive = small, poorly fitted or top-dose-only effect, or effect the other way; inactive = flat fitted curve, though single readings scatter. Potencies of inconclusive entries are doubtful fits and often do not repeat.
Assay: qHTS screen for small molecules that inhibit ELG1-dependent DNA repair in human embryonic kidney (HEK293T) cells expressing luciferase-tagged ELG1; also: nearly all actives have a fitted effect of over 55% in size
Conditions: HEK293T ELG1-luciferase reporter, luminescence, 16 h, DNA damage induced by 5-fluorouridine; series mostly up to 46.1 µM
Method in brief: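 Cells (2,000 per well) received 5-fluorouridine plus test compound or DMSO and were incubated 16 hr at 37 °C, 5% CO2. Luciferase activity was read by luminescence 30 min after ONE-Glo addition; signal suppression marked inhibition of damage-induced ELG1 function.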
Potency is read from the fitted curve at half-maximal effect.

| Compound | Potency |
| --- | --- |
| CCOC(=O)c1c(NC(=O)COC(=O)Cc2n[nH]c(=O)c3ccccc23)sc(C(=O)N(C)C)c1C | inconclusive: 5.17 µM [inhibitor, single point] |
| Cc1ccc(-c2csc(NC(=O)c3cccc(S(=O)(=O)N4CCN(C)CC4)c3)n2)cc1 | inconclusive: 29.1 µM [inhibitor, single point] |
| O=C(Cc1ccc(Cl)c(Cl)c1)Nc1ccccc1N1CCOCC1 | inconclusive: 29.1 µM [inhibitor, single point] |
| Cc1ccccc1OCC(=O)O/N=C(\N)Cc1cccs1 | inconclusive: 18.4 µM [inhibitor, partial curve, poor fit] |
| O=C(O)c1cccc(NC2=Nc3cccc4cccc2c34)c1 | inconclusive: 1.3 µM [activator, full curve] |
| COc1ccc(NC(=O)c2cc(S(=O)(=O)N3CCCCC3)ccc2OC)cc1 | inactive |
| Cc1ccc(Oc2nc(CN3CCOCC3)nc3sc4c(c23)CCC(C)C4)cc1C (configuration not stated) | active: 13 µM |
| C=CCN=c1scc(-c2ccc(F)cc2)n1/N=C/c1ccccn1 | inconclusive: 16.4 µM [activator, partial curve] |
| COc1ccccc1C1=NOC(C(=O)N2CCN(C(=O)c3ccco3)CC2)C1 (configuration not stated) | inactive |
| Cc1ccc(S(=O)(=O)N2CCOCC2)cc1NC(=O)CSc1nnnn1C | inactive |
| CC(C)NC(=S)N/N=C1\CCCc2ccccc21 | inactive |
| O=C1NC2(CCCCCC2)C(=O)N1Cc1c(F)cccc1Cl | inactive |
| Fc1ccccc1CSc1ccc(-c2ccco2)nn1 | inconclusive: 6.51 µM [activator, partial curve] |
| Cn1c(N)c(C(=O)COC(=O)c2ccc(Cl)c(S(=O)(=O)N3CCCC3)c2)c(=O)n(C)c1=O | inconclusive: 20.6 µM [inhibitor, single point] |
| O=C(CN1CCN(c2ccc(F)cc2)CC1)N1CCC(Cc2ccccc2)CC1 | inactive |
| CS(=O)(=O)N1CCN(c2ccc(NC(=O)c3ccc(-c4ccc(Cl)cc4)o3)cc2)CC1 | inconclusive: 20.6 µM [activator, single point] |
| CCOc1ccc(N=C(/C(C(=O)C(=O)N2CCOCC2)=C(\O)c2ccccc2)c2ccccc2)cc1 | inconclusive: 18.4 µM [activator, partial curve] |
| COc1ccc(NC(=S)NC(=O)Cc2ccccc2)cc1 | inconclusive: 22.4 µM [activator, partial curve, poor fit] |
| CC(C)(CNC(=O)c1ccc(-c2ccccc2Cl)o1)N1CCOCC1 | inconclusive: 25.9 µM [activator, single point] |
| NC(=O)N/N=C(/CCCCCC/C(=N\NC(N)=O)c1ccccc1)c1ccccc1 | inconclusive: 29.1 µM [inhibitor, single point] |
| CCOCCCNc1nc(-c2ccccc2)nc2ccccc12 | inconclusive: 29.1 µM [inhibitor, single point] |
| Fc1ccc(C(c2nnnn2Cc2cccs2)N2CCN(C3CCCCC3)CC2)cc1 (configuration not stated) | inactive |
| CCC(=O)Nc1nnc(SCCN2CCOCC2)s1 | inconclusive: 29.1 µM [activator, partial curve, poor fit] |
| COc1ccc(CNC(=O)OCc2nccnc2C(=O)Nc2ccc(Br)cn2)cc1 | inconclusive: 10.3 µM [activator, partial curve] |

No new results follow: entries from further up.

| Compound | Potency |
| --- | --- |
| O=C(Cc1ccc(Cl)c(Cl)c1)Nc1ccccc1N1CCOCC1 | inconclusive: 29.1 µM [inhibitor, single point] |
| Cc1ccccc1OCC(=O)O/N=C(\N)Cc1cccs1 | inconclusive: 18.4 µM [inhibitor, partial curve, poor fit] |

The list goes on.

| Compound | Potency |
| --- | --- |
| O=C(Nc1ccc(CN2CCCCC2)cc1)c1cccc(Br)c1 | inconclusive: 18.4 µM [activator, partial curve] |
| COc1ccc2c(c1)c(=O)cc(C)n2CC(=O)NCc1ccco1 | inactive |
| O=C(NC(=S)NCC1CCCO1)C(c1ccccc1)c1ccccc1 (configuration not stated) | inactive |
| COc1ccc(OC)c(NC(=O)C2CCN(c3cc(-c4ccccc4)nc4ncnn34)CC2)c1 | inconclusive: 1.84 µM [inhibitor, single point] |
| CCCc1[nH][nH]c(=O)c1C(c1cccc(Cl)c1)C(C#N)C#N (configuration not stated) | inconclusive: 29.1 µM [inhibitor, single point] |
| O=C(Nc1cnc2ccccc2c1)c1cccc(-n2cnnn2)c1 | inconclusive: 20.6 µM [activator, partial curve] |
| CCO[C@H]1OC(C(=O)N2CCOCC2)=C[C@@H](C2CC2)[C@@H]1CCCO | inactive |
| Cn1nc(C(=O)NNc2c(F)c(F)cc(F)c2F)c2ccccc2c1=O | inactive |
| COc1ccc(C(=O)/C=C/c2ccc(O)cc2)c2c1CC(O)C(C)(C)O2 (configuration not stated) | active: 23.1 µM |
| Cc1cc(Cl)cc(Cl)c1OCC(=O)NCc1ccco1 | inactive |
| CCOc1ccc2c(c1)C(c1cccs1)=NNC(c1cccnc1)=N2 | inactive |
| COc1ccc(C(=O)N2CCCC(Nc3ccc(C)c(C)c3)C2)c(OC)n1 (configuration not stated) | inactive |
| CC(C)OCCOc1ccc2oc(-c3ccco3)cc(=O)c2c1 | inconclusive: 29.1 µM [activator, single point] |
| CCC(=O)N1COC[C@@H]1Cc1ccccc1 | inactive |
| Cc1ccc(OCC(=O)Nc2cccnc2Cl)cc1C | inconclusive: 16.4 µM [activator, partial curve] |
| Cc1ccc(CNC(=O)C2CCCN(S(=O)(=O)c3c(C)noc3/C=C/N(C)C)C2)cc1 (configuration not stated) | inactive |
| CC(=O)Nc1nc(COc2ccc3ccccc3c2)cs1 | inconclusive: 2.91 µM [activator, single point] |
| Cc1ccccc1N(C)S(=O)(=O)c1nnc(NC(=O)c2ccccc2F)s1 | inactive |
| CC[C@H](C)[C@H](NC(=O)OCc1ccccc1)C(=O)OCC(=O)N(C)CC(=O)Nc1ccccc1Cl | inconclusive: 0.259 µM [inhibitor, single point] |
| O=C(NCCCNCCCNC(=O)c1ccc(/C=N/O)nc1)c1ccc(/C=N/O)nc1 | inconclusive: 16.4 µM [activator, partial curve, poor fit] |
| O=C(Nc1ccc(S(=O)(=O)N2CCCCC2c2cccnc2)cc1)c1ccccc1F (configuration not stated) | inconclusive: 16.4 µM [inhibitor, partial curve] |
| CCOc1ccc(NC(=S)NC(=O)c2ccco2)cc1 | inconclusive: 23.1 µM [activator, partial curve] |
| NC(=O)C1CCN(c2ncnc3c2c(-c2ccccc2)cn3-c2ccccc2)CC1 | active: 16.4 µM |
| CCc1ccc(NC2=NCC(c3ccccc3)S2)cc1 (configuration not stated) | inconclusive: 16.4 µM [activator, partial curve] |

Laid out differently: entries from further up
Compound | Potency
Cc1cc(Cl)cc(Cl)c1OCC(=O)NCc1ccco1 | inactive
CCOc1ccc2c(c1)C(c1cccs1)=NNC(c1cccnc1)=N2 | inactive
COc1ccc(C(=O)N2CCCC(Nc3ccc(C)c(C)c3)C2)c(OC)n1 (configuration not stated) | inactive
CC(C)OCCOc1ccc2oc(-c3ccco3)cc(=O)c2c1 | inconclusive: 29.1 µM [activator, single point]

(list continues)

| Compound | Potency |
| --- | --- |
| Cc1nc(NC(=O)C2CC2)sc1C(=O)Nc1cccc(Cl)c1 | inactive |
| CN(C(=O)c1ccc2c(Cl)c3c(nc2c1)CCC3)c1ccccc1 | inconclusive: 20.6 µM [activator, partial curve] |
| O=C(CN1CCN(c2ccc(Cl)cc2)CC1)Nc1cccc(F)c1 | inactive |
| N=C1S/C(=C\c2cn[nH]c2-c2ccc(F)cc2)C(=O)N1c1ccccc1F | inconclusive: 4.61 µM [activator, full curve] |
| N#CC(C(=O)OCc1ccccc1)c1nc2ccccc2nc1N1CCOCC1 (configuration not stated) | inconclusive: 29.1 µM [inhibitor, single point] |
| O=C(O)c1ccc(S(=O)(=O)c2ccc3c(c2)C(=O)N(NC(=O)c2ccccc2)C3=O)cc1 | inconclusive: 16.4 µM [activator, single point] |
| CCOC(=O)N/N=C\c1ccc(OC(=O)c2ccc3c(c2)OCO3)cc1 | inconclusive: 23.1 µM [activator, single point] |
| Cn1nc(C(=O)NCc2cccc(Cl)c2)c2c1-c1ccccc1S(=O)(=O)C2 | inconclusive: 20.6 µM [inhibitor, partial curve] |
| CC(=O)N1CCN(C(=O)/C(C#N)=C/c2ccc3c(c2)OCO3)CC1 | inactive |
| O=C(Nc1ccc2c(c1)OCO2)C1CC(c2c(F)cccc2Cl)=NO1 (configuration not stated) | inconclusive: 9.2 µM [activator, partial curve] |
| COc1cc(C#Cc2c(-c3cncn3C)n(C)c3ccc(Br)cc23)cc(OC)c1 | active: 9.2 µM |
| CC(C)C(=O)Nc1c(-c2cccs2)c(=O)c2ccccc2n1C | inactive |
| Cc1cccc(N/C(=N/S(=O)(=O)c2ccccc2)c2ccccc2)n1 | inactive |
| CC(C)(C)OC(=O)N1CCN(c2ccc(NC(=O)Cn3nnc(-c4ccccc4)n3)cc2)CC1 | inactive |
| CC1CCC(NC(=O)COC(=O)C2CC3CCCC(C2)C3=O)CC1 (configuration not stated) | inconclusive: 29.1 µM [activator, partial curve, poor fit] |
| CC(NC(=O)c1cnc2ccccc2n1)c1ccccc1 (configuration not stated) | inconclusive: 29.1 µM [inhibitor, single point] |
| Cc1cc(Cl)ccc1Oc1ccccc1C(=O)CC#N | inconclusive: 29.1 µM [inhibitor, single point] |
| CN(c1ccccc1)S(=O)(=O)c1nnc(NC(=O)C2CCCCC2)s1 | inactive |
| COCC(=O)N1CCC(Oc2ccc(C(=O)N(C)CCCC3CCCC3)cc2)CC1 | inactive |
| O=C(CSc1nnc(-c2ccncc2)n1-c1ccccc1)N1CCN(c2ccc(Cl)cc2)CC1 | inconclusive: 14.6 µM [inhibitor, partial curve, poor fit] |
| O=C(CN1C(=O)/C(=C/c2cccc(Br)c2)SC1=S)NCCCN1CCOCC1 | inactive |
| CC(=O)Nc1cccc(NC(=O)CSc2n[nH]c(-c3ccccc3)n2)c1 | inactive |
| COc1ccc(OC(=O)c2cccc([N+](=O)[O-])c2)c(C(=O)/C=C/c2cccs2)c1 | inconclusive: 18.4 µM [activator, partial curve, poor fit] |
| CCOC(=O)Cn1c(=NC(=O)C2CC2)sc2c(C)cc(C)cc21 | inconclusive: 32.6 µM [inhibitor, single point] |

Source: PubChem BioAssay AID504467 (National Center for Advancing Translational Sciences (NCATS), 2011)
